Data: publication doi:10.64898/2025.12.30.696908
No constants are given. Whether binding was seen depends on the method and setting. In cells and extracts the contact can be indirect. Here binding means that the protein was enriched with, or labelled near, the bait; the list need not be complete. Where a sequence is shown, tags or fusion partners need not be part of it.

Sequences of proteins named here, by UniProt entry; tags and fusion partners are left off.
UniProt P19096: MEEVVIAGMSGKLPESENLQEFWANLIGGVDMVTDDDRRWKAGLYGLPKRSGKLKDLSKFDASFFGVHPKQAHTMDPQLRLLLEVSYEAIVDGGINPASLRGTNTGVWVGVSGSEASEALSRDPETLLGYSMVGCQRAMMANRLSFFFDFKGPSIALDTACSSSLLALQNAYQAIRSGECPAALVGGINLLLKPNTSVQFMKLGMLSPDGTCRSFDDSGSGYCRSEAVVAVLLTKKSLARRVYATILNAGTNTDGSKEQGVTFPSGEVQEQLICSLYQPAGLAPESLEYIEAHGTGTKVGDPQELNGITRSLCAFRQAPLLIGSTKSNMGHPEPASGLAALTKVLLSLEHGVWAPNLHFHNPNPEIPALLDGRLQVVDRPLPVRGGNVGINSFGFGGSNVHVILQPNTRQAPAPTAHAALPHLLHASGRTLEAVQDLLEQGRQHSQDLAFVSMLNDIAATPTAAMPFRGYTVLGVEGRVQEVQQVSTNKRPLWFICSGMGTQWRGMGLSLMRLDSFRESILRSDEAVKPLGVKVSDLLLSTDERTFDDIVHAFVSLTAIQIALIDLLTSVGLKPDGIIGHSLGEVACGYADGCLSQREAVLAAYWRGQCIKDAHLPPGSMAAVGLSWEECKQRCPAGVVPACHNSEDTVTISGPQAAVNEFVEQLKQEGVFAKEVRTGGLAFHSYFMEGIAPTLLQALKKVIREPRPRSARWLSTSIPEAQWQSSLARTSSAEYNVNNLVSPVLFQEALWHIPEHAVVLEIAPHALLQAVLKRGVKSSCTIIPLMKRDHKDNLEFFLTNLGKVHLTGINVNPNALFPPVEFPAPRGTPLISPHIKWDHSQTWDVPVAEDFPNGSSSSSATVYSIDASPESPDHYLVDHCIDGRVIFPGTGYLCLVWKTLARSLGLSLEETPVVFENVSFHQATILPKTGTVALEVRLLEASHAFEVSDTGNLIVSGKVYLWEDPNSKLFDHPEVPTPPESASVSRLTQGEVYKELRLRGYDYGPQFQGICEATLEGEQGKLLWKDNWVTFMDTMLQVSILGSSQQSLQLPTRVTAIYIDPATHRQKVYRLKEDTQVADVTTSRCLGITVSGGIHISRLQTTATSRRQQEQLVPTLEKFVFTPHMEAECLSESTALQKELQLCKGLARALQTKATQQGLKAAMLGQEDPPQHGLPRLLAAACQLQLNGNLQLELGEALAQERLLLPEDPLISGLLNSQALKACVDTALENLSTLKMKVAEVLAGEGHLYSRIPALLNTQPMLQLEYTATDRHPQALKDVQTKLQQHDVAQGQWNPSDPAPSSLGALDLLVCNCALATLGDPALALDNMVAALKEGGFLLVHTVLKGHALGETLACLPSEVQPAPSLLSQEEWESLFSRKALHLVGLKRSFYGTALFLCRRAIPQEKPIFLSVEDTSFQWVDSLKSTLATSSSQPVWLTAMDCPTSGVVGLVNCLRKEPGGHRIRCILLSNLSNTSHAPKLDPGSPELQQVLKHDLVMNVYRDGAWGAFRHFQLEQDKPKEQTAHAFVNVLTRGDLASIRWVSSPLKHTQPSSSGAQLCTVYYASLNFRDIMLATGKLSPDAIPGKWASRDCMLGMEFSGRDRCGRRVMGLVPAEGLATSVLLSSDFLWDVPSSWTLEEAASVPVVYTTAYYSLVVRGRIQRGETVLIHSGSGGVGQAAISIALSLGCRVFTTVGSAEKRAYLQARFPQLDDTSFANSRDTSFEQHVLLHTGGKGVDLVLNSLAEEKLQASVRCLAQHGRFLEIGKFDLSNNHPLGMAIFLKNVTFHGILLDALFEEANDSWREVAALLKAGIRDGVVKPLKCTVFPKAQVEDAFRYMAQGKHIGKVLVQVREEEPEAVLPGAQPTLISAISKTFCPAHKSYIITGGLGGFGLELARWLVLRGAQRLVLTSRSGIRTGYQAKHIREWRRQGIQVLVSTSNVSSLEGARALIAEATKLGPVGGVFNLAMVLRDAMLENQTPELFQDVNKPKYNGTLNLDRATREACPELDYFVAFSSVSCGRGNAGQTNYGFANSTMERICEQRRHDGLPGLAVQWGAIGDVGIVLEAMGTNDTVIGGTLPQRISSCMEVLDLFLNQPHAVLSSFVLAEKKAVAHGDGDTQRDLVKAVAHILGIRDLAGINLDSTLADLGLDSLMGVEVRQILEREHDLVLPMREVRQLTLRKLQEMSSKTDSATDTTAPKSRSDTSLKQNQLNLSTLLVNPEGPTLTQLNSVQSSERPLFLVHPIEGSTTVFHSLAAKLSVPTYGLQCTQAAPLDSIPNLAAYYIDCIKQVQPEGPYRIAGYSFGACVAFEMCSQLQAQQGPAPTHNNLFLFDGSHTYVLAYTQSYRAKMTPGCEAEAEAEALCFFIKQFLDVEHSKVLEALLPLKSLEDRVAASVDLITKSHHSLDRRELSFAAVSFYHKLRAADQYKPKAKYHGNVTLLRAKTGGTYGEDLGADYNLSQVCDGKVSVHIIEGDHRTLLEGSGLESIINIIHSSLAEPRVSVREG
UniProt Q9CQ20: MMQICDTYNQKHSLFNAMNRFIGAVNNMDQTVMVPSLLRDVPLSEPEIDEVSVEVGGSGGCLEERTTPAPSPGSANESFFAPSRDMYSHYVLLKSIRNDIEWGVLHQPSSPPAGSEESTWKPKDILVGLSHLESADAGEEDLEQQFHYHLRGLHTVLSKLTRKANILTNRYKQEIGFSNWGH

These substances were tested against T1, S14-Flag (UniProt Q62264) (assay: affinity purification with mass spectrometry; adenovirus expressing S14-Flag injected into mice, liver lysates 3 days later; anti-Flag immunoprecipitation; bands specific to the S14-Flag lanes (control: β-gal adenovirus) cut from silver-stained gels and analysed by LC-MS/MS).
T1 sequence: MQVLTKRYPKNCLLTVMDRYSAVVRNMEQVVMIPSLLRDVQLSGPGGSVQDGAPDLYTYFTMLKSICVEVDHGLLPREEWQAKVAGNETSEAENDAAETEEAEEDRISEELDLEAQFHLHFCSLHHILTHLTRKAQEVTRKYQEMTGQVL

binding, binds:
fatty acid synthase (FAS), mouse liver (from UniProt P19096 1-2504) (enzyme)
MIG12, mouse liver (from UniProt Q9CQ20 1-182)
β-tubulin, mouse liver
